Out of some 360,000 compounds screened, about 7,500 (2.1%) were called active. This list was built around the results that the source calls inconclusive (neither active nor inactive); the mix of calls is not that of the screen. Calls come from the whole dose curve; as a rule, active = well fitted inhibition curve with a large enough effect; inconclusive = small, poorly fitted or top-dose-only effect, or effect the other way; inactive = flat fitted curve, though single readings scatter. Potencies beside an inconclusive call are fits to weak or partial responses and may not hold up.
Experiment: Nrf2 qHTS screen for inhibitors; note: nearly all actives have a fitted effect of over 60% in size
Conditions: A549 ARE-Fluc reporter, luciferase luminescence, 18-24 h; activity change, negative = inhibition: at 46 µM (top of the series)
Procedure, shortened: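 Two sequential reads on A549 ARE_Fluc cells exposed to compound for 18-24 h: a CellTiter-Fluor fluorescence read for viability, then a luciferase luminescence read for Nrf2/ARE activity.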
% is set by controls: 0 for no effect and ±100 for the full control effect; potency is the fitted concentration of half-maximal effect.

Row | Structure (SMILES) | Potency | activity change, negative = inhibition
1 | Cc1nc2oc3c(NCc4ccccc4)ncnc3c2c2c1COC(C)(C)C2 | inconclusive: 9.2 µM [falling, partial curve] | 
2 | CCCCC1(Cc2ccc(OC)c([N+](=O)[O-])c2)C(=O)N(c2ccccc2)N(c2ccccc2)C1=O | inconclusive: 20 µM [falling, single point] | 
3 | CCN(CC)C(=O)[C@H]1C[C@H](CC(=O)NCc2cccc(C(F)(F)F)c2)C(=O)N2CCc3c([nH]c4ccc(Cl)cc34)[C@]12C | inconclusive: 29.1 µM [falling, single point] | 
4 | Cc1ccccc1C(=O)NNC(=O)c1cccn1C | inconclusive: 16.4 µM [activator, single point] | 
5 | Nc1nc(SCC(=O)Nc2cccc(Oc3ccccc3)c2)n[nH]1 | active: 16.4 µM | 
6 | Cc1nn(Cc2c(Cl)cccc2Cl)c(C)c1NC(=O)c1cc(C(C)C)on1 | inconclusive: 4.61 µM [activator, full curve, poor fit] | 
7 | Cc1ccc(OCC(=O)Nc2ccc(S(=O)(=O)Nc3cc(C)nc(C)n3)cc2)cc1 |  | inactive: 12%
8 | Cc1ccc(CNC(=O)C(=O)NCCC2CCCCN2S(=O)(=O)c2cccs2)cc1 (stereo not drawn) | inconclusive: 29.1 µM [falling, single point] | 
9 | Cc1ccc(-n2nc(C)c3c(C(=O)NCc4ccc(F)cc4)cc(C)nc32)cc1 | inconclusive: 13 µM [activator, partial curve, poor fit] | 
10 | O=C(Nc1ccc2nsnc2c1)c1cccs1 |  | inactive: 5.5%
11 | Cc1cccc(N2CC(C)Cn3c2nc2c3c(=O)n(CC(=O)O)c(=O)n2C)c1 (stereo not drawn) |  | inactive: 29.7%
12 | CCCOC(c1ccccc1)(c1ccc(C(F)(F)F)cc1)C(Oc1nc(C)cc(C)n1)C(=O)O (stereo not drawn) | active: 3.26 µM | 
13 | COc1ccc2oc(=O)c(-c3nc(C)cs3)cc2c1 | inconclusive: 2.91 µM [activator, full curve] | 
14 | CCCOc1ccc(C(=O)Nc2cccnc2)cc1 |  | inactive: 26.4%
15 | CC1CCCC(NC(=S)NC(=O)c2ccccc2Br)C1C (stereo not drawn) | inconclusive: 29.1 µM [falling, single point] | 
16 | O=C(Nc1cccc(Cl)c1N1CCOCC1)c1ccc2c(c1)OCCO2 | active: 23.1 µM | 
17 | O=C(O)c1cc2c(=O)c3ccccc3oc2nc1C(F)(F)F | inconclusive: 3.26 µM [activator, full curve] | 
18 | COc1ccc(NC(=O)c2nc[nH]c2C(=O)N2CCN(c3ccccc3)CC2)cc1 | inconclusive: 9.2 µM [falling, partial curve] | 
19 | OC(CN1CCN(c2cccc(Cl)c2)CC1)c1ccccc1 (stereo not drawn) |  | inactive: -16.7%
20 | Cc1c(NS(=O)(=O)c2ccc3c(c2)Cc2ccccc2-3)c(=O)n(-c2ccccc2)n1C | inconclusive: 2.59 µM [falling, full curve, poor fit] | 
21 | Cc1ccc(Cn2c(=N)n(CC(O)COc3ccccc3)c3ccccc32)cc1 (stereo not drawn) |  | inactive: -12%
22 | Cc1cc(=O)oc2cc(OCC3CC(c4ccccc4)=NO3)ccc12 (stereo not drawn) |  | inactive: -11.6%
23 | CN(CC(=O)O)S(=O)(=O)c1ccc2c(c1)NC(=O)CC(=O)N2 |  | inactive: -14.7%

Row | Structure (SMILES) | Potency | activity change, negative = inhibition
24 | Cc1cccc(N(C(=O)c2snc(C(N)=O)c2N)C(C(=O)NC2CCCC2)c2ccco2)c1 (stereo not drawn) |  | inactive: 5.72%
25 | O=C(C[C@H]1C/C=C\C[C@@H](NC(=O)OCC2c3ccccc3-c3ccccc32)C(=O)O[C@@H](c2ccccc2)CNC1=O)N[C@H](CO)Cc1ccccc1 | inconclusive: 29.1 µM [falling, single point] | 
26 | COc1ccc(S(=O)(=O)N2CCN(Cc3ccc4c(c3)OCO4)CC2)cc1F | inconclusive: 25.9 µM [falling, single point] | 
27 | CCN(CC)S(=O)(=O)c1cc(NC(=O)CNc2cccc(S(=O)(=O)N3CCOCC3)c2)ccc1C | active: 0.58 µM | 
28 | O=C(COc1ccc([N+](=O)[O-])cc1)Nc1cccc2cccnc12 | inconclusive: 0.366 µM [falling, partial curve, poor fit] | 
29 | CCCOc1ccc(C(=O)N2CCN(c3ccc(NC(=O)CC)cc3Cl)CC2)cc1 | inconclusive: 29.1 µM [falling, single point] | 
30 | CC(c1cccs1)N(Cc1ccco1)C(=S)Nc1ccccc1Cl (stereo not drawn) | inconclusive: 14.6 µM [falling, single point] | 
31 | CC(=O)Nc1ccc(NC(=O)CSc2ccc(-c3ccc4c(c3)OCO4)nn2)cc1 | inconclusive: 29.1 µM [activator, single point] | 
32 | C=C(C)CNC(=S)/N=c1\scc(C)n1CC | inconclusive: 29.1 µM [falling, single point] | 
33 | CCCNC(=S)N1CCN(c2nc(-c3ccc(C)cc3)cs2)CC1 | active: 23.1 µM | 
34 | COCCNC(=O)CCc1c(C)nc2c(c(C)nn2-c2ccc(C)cc2)c1C | inconclusive: 29.1 µM [falling, single point] | 
35 | COc1ccc(OC)c(C2=Nn3c(nnc3-c3cc(C)[nH]n3)SC2)c1 | inconclusive: 9.2 µM [falling, partial curve] | 
36 | O=C(c1ccc(Cl)cc1)c1c[nH]c(C(=O)NNc2cccc(Cl)n2)c1 | inconclusive: 32.6 µM [falling, single point] | 
37 | N#Cc1c(C(F)(F)F)cc(-c2cccs2)nc1SCC(=O)Nc1ccc(F)cc1 | inconclusive: 4.11 µM [falling, partial curve, poor fit] | 
38 | CN(C)c1ccccc1C(=O)N1CCCC(C(=O)c2ccc3ccccc3c2)C1 (stereo not drawn) | inconclusive: 16.4 µM [falling, single point] | 
39 | COc1cccc(N2[C@@H](CC(C)=O)c3ccc(/C=C/C(C)=O)cc3S2(=O)=O)c1 |  | inactive: 3.65%
40 | CSc1ncc(Cl)c(C(=O)Nc2ccc(S(=O)(=O)N3CCCC(C)C3)cc2)n1 (stereo not drawn) |  | inactive: -10.8%
41 | CCCC(=O)O[C@]1(C(=O)CO)CC[C@H]2[C@@H]3CCC4=CC(=O)CC[C@]4(C)[C@H]3[C@@H](O)C[C@@]21C | active: 0.0231 µM | 
42 | O=CNC1CCCc2c1[nH]c1ccc(Cl)cc21 (stereo not drawn) | inconclusive: 8.2 µM [falling, partial curve] | 
43 | Cc1c(CCC(=O)NC2CC2)c(=O)oc2c(C)c(O)ccc12 | inconclusive: 14.6 µM [falling, partial curve, poor fit] | 
44 | COc1ccc(-c2nn(-c3ccccc3)cc2/C=C/C(=O)O)cc1[N+](=O)[O-] | inconclusive: 0.259 µM [falling, full curve, poor fit] | 
45 | COc1ccc(C(=O)CSc2nc3ncccc3[nH]2)cc1OC |  | inactive: -13.2%
46 | CCc1cc2c(=O)c(-c3ccon3)c(N)oc2cc1OC | inconclusive: 2.59 µM [activator, full curve] | 

Row | Structure (SMILES) | Potency | activity change, negative = inhibition
47 | CCOC(=O)C1=C(C(C)=O)C(c2cccnc2)C(C#N)=C(N)O1 (stereo not drawn) | inconclusive: 6.51 µM [activator, single point] | 
48 | Cc1cc2nc(C)n(CCCNC(=O)Nc3cccc4ccccc34)c2cc1C | inconclusive: 18.4 µM [falling, single point] | 
49 | COc1ccc(/C=C/C2=NN(C)C(=O)CC2)cc1 | inconclusive: 23.1 µM [activator, single point] | 
50 | COc1ccc2[nH]c(=O)c(CNc3ccccc3OC)cc2c1 |  | inactive: -18%
51 | COc1cc(Cl)c(C)cc1NC(=O)Cn1ncc2c(=O)oc3ccccc3c21 |  | inactive: 25.4%
52 | O=C(Nc1nnc(-c2ccco2)o1)c1ccc(S(=O)(=O)N2CCOCC2)cc1 |  | inactive: -9.34%
53 | O=C(c1ccc(C(=O)N2CCCc3ccccc32)s1)N1CCCc2ccccc21 | inconclusive: 29.1 µM [falling, single point] | 
54 | Cc1ccc2[nH]c(=O)c(CN(CCCO)Cc3nnnn3Cc3ccccc3)cc2c1 |  | inactive: -28.3%
55 | Cc1ccc(OCC(=O)N/N=C/C=C/c2ccco2)cc1C |  | inactive: 10.2%
56 | CCC(C)n1c(=O)c(C(=O)Nc2ccccc2S(N)(=O)=O)c(O)c2ccccc21 (stereo not drawn) | inconclusive: 20.6 µM [falling, single point] | 
57 | O=C(/C=C/c1ccccc1Cl)Nc1ccccc1 | inconclusive: 8.2 µM [activator, partial curve] | 
58 | O=C1S/C(=C/c2ccc(N3CCOCC3)o2)C(=O)N1Cc1c(F)cccc1Cl | inconclusive: 16.4 µM [falling, single point] | 
59 | O=C(NCc1cccnc1)C(=O)NCC(c1cccnc1)N1CCN(c2ccccc2F)CC1 (stereo not drawn) | inconclusive: 0.92 µM [falling, partial curve, poor fit] | 
60 | CCCOC(=O)/C(=C\C=C\c1ccco1)NC(=O)c1ccccc1 | inconclusive: 5.8 µM [activator, full curve, poor fit] | 
61 | COc1ccc(NC(=O)Cn2c(C)cc(=O)c3ccccc32)cc1 | inconclusive: 32.6 µM [falling, single point] | 
62 | O=C(c1ccc(Cl)cc1)N(c1ccccn1)C1CCCCC1 |  | inactive: 1.41%
63 | Cn1c(=O)n(C)c2cc([N+](=O)[O-])c(N3CCN(S(=O)(=O)c4ccccc4)CC3)cc21 | inconclusive: 18.4 µM [falling, partial curve] | 
64 | COc1cccc(C(=O)C2CCCN(Cc3cccc(-n4nc(C)cc4C)c3)C2)c1 (stereo not drawn) | inconclusive: 0.058 µM [falling, full curve, poor fit] | 
65 | Cc1cc(C)c2c(=O)cc(C(=O)Nc3ccc(S(=O)(=O)N(C)Cc4ccccc4)cc3)oc2c1 | inconclusive: 29.1 µM [falling, single point] | 
66 | CSc1nc(-c2ccccc2)nn1C(=O)c1ccc(C)cc1 | inconclusive: 7.31 µM [falling, partial curve] | 
67 | COc1ccc(C(=O)OCC(=O)NC2CCCC2)cc1OC | inconclusive: 14.6 µM [falling, single point] | 
68 | Cc1nn(-c2ccc(F)cc2)c(-n2cccc2)c1C(=O)NCCCN1CCN(c2cccc(Cl)c2)CC1 | inconclusive: 29.1 µM [falling, single point] | 

Molecules listed so far that contain a cyano group (two):
Row | Structure (SMILES) | Potency | activity change, negative = inhibition
37 | N#Cc1c(C(F)(F)F)cc(-c2cccs2)nc1SCC(=O)Nc1ccc(F)cc1 | inconclusive: 4.11 µM [falling, partial curve, poor fit] | 
47 | CCOC(=O)C1=C(C(C)=O)C(c2cccnc2)C(C#N)=C(N)O1 (stereo not drawn) | inconclusive: 6.51 µM [activator, single point] | 

Reference: PubChem BioAssay AID504444 (National Center for Advancing Translational Sciences (NCATS), 2011)
